Values from PubChem BioAssay AID1259254 (NCATS, 2017)
Test: 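Gene knock-downs that lead to re-replication, shown by excess G2 DNA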 (primary screen). Cells: human HCT116 colorectal cancer cells. Reagent: single siRNA against human genes. Time to read-out: 3 days. Measured: 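Imaged Hoechst DNA stain sorts each cell into a cycle phase by DNA amount; per plate, G2 fraction set to 0% for non-targeting and 100% for GMNN siRNA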. Direction: G2 robust z-score: higher = more G2 cells, more excess DNA replication. Rule for the call: 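An siRNA counts as active if its G2 robust z-score lies at least 5 MADs above the screen median; here such calls match roughly 38% of GMNN control or more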.
In all, the deposit lists about 59,000 reagents; below is an unselected part. About 1,550 of all reagents (2.6%) count as active. 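G2 share is only a proxy for re-replication; each gene was hit by three separate siRNAs, and active genes were retested.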 The numbers tell different reagents against one gene apart. Further read-outs or replicates are left out here. The record does not give: the amount of reagent.

| gene symbol | reagent | G2 robust z-score | Outcome |
| --- | --- | --- | --- |
| PHF19 (GeneID 26147) | 1 | -0.75 | inactive |
| PHF19 (GeneID 26147) | 2 | -0.976 | inactive |
| PHF19 (GeneID 26147) | 3 | 1.76 | inactive |
| LPAR4 (GeneID 2846) | 1 | 1.46 | inactive |
| LPAR4 (GeneID 2846) | 2 | -0.902 | inactive |
| LPAR4 (GeneID 2846) | 3 | 0.113 | inactive |
| MROH9 (GeneID 80133) | 1 | 0.754 | inactive |
| MROH9 (GeneID 80133) | 2 | 0.675 | inactive |
| MROH9 (GeneID 80133) | 3 | -1.33 | inactive |
| HOXB3 (GeneID 3213) | 1 | 0.344 | inactive |
| HOXB3 (GeneID 3213) | 2 | 0.334 | inactive |
| HOXB3 (GeneID 3213) | 3 | -0.667 | inactive |
| PUS7L (GeneID 83448) | 1 | -0.802 | inactive |
| PUS7L (GeneID 83448) | 2 | 0.832 | inactive |
| PUS7L (GeneID 83448) | 3 | -0.999 | inactive |
| NDUFA3 (GeneID 4696) | 1 | 0.00272 | inactive |
| NDUFA3 (GeneID 4696) | 2 | -0.644 | inactive |
| NDUFA3 (GeneID 4696) | 3 | 0.541 | inactive |
| NBPF14 (GeneID 25832) | 1 | 1.06 | inactive |
| NBPF14 (GeneID 25832) | 2 | 2.99 | inactive |
| NBPF14 (GeneID 25832) | 3 | -0.831 | inactive |
| SSTR4 (GeneID 6754) | 1 | 1.17 | inactive |
| SSTR4 (GeneID 6754) | 2 | 10.6 | active |
| SSTR4 (GeneID 6754) | 3 | 0.642 | inactive |
| GATB (GeneID 5188) | 1 | 1.74 | inactive |
| GATB (GeneID 5188) | 2 | 0.746 | inactive |
| GATB (GeneID 5188) | 3 | -0.861 | inactive |
| LINC02913 (GeneID 414318) | 1 | 0.351 | inactive |
| LINC02913 (GeneID 414318) | 2 | 0.916 | inactive |
| LINC02913 (GeneID 414318) | 3 | -0.384 | inactive |
| ANKDD1B (GeneID 728780) | 1 | 1.22 | inactive |
| ANKDD1B (GeneID 728780) | 2 | 0.815 | inactive |
| ANKDD1B (GeneID 728780) | 3 | 0.285 | inactive |
| CD3D (GeneID 915) | 1 | -0.872 | inactive |
| CD3D (GeneID 915) | 2 | -0.89 | inactive |
| CD3D (GeneID 915) | 3 | -0.105 | inactive |
| GAR1 (GeneID 54433) | 1 | 3.77 | inactive |
| GAR1 (GeneID 54433) | 2 | 1.2 | inactive |
| GAR1 (GeneID 54433) | 3 | -0.157 | inactive |
| TMEM63B (GeneID 55362) | 1 | 0.554 | inactive |
| TMEM63B (GeneID 55362) | 2 | 0.0859 | inactive |
| TMEM63B (GeneID 55362) | 3 | 0.593 | inactive |
| DNER (GeneID 92737) | 1 | -0.539 | inactive |
| DNER (GeneID 92737) | 2 | -0.435 | inactive |
| DNER (GeneID 92737) | 3 | 0.518 | inactive |
| FSCN1 (GeneID 6624) | 1 | -0.631 | inactive |
| FSCN1 (GeneID 6624) | 2 | 0.571 | inactive |
| FSCN1 (GeneID 6624) | 3 | 0.92 | inactive |
| DLK2 (GeneID 65989) | 1 | 2.53 | inactive |
| DLK2 (GeneID 65989) | 2 | -0.435 | inactive |
| DLK2 (GeneID 65989) | 3 | 0.0323 | inactive |
| MYCLP2 (GeneID 645136) | 1 | 1.39 | inactive |
| MYCLP2 (GeneID 645136) | 2 | 0.712 | inactive |
| MYCLP2 (GeneID 645136) | 3 | 0.513 | inactive |
| CXCL1 (GeneID 2919) | 1 | -0.742 | inactive |
| CXCL1 (GeneID 2919) | 2 | 1.55 | inactive |
| CXCL1 (GeneID 2919) | 3 | 0.516 | inactive |
| CUX2 (GeneID 23316) | 1 | 3.3 | inactive |
| CUX2 (GeneID 23316) | 2 | -0.502 | inactive |
| CUX2 (GeneID 23316) | 3 | -0.56 | inactive |
| NT5DC1 (GeneID 221294) | 1 | -0.458 | inactive |
| NT5DC1 (GeneID 221294) | 2 | 1.03 | inactive |
| NT5DC1 (GeneID 221294) | 3 | -0.763 | inactive |
| FEZF1 (GeneID 389549) | 1 | -0.95 | inactive |
| FEZF1 (GeneID 389549) | 2 | 0.277 | inactive |
| FEZF1 (GeneID 389549) | 3 | -0.468 | inactive |
| SPG11 (GeneID 80208) | 1 | 0.283 | inactive |
| SPG11 (GeneID 80208) | 2 | -0.835 | inactive |
| SPG11 (GeneID 80208) | 3 | -1.01 | inactive |

Records listed so far marked active, once more:
| gene symbol | reagent | G2 robust z-score | Outcome |
| --- | --- | --- | --- |
| SSTR4 (GeneID 6754) | 2 | 10.6 | active |
